# Experimental data from PubChem BioAssay AID662 (National Center for Advancing Translational Sciences (NCATS), 2007).
# Several values for one entry are separate records, joined by “and”; a condition that tells them apart may be missing. Equal entries are not always repeated. Some of the results follow. The main result of the screen is listed elsewhere. These columns were measured beside it and carry no call. Compounds called inactive in the main read-out are mostly missing here. Potencies come from curve fits of mixed quality, noted in brackets.
# Experiment: Cell signaling CRE-BLA (Fsk stim)
# Settings: CHO CRE-bla reporter (cAMP response element driving beta-lactamase), forskolin EC10, beta-lactamase ratio; measured here: 460 nm blue channel
# Outline: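 AC50 values, positive or negative, reflect shifts in EC10 NKH 477-induced CRE-bla reporter activity in CHO cells. Incubation lasted 3 h at 37 °C before CCF4 substrate (2 h, room temperature) and ratiometric 460/530 nm reading.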
row,SMILES,AC50
1,Cc1ccc(NC(=O)c2cc(N(C)C)ccc2[P+](=O)O)cc1,"0.316 µM [falling, full curve]"
2,Cc1[nH]c2ccccc2c(=O)c1CN1CCCCC1,"0.00316 µM [falling, full curve, poor fit]"
3,N[C@@H](C(=O)O)c1ccc(C(=O)O)cc1,"12.6 µM [rising, single point]"
4,O=C(c1ccccc1)c1ccc2nc(N3CCCCC3)c3nncn3c2c1,"12.6 µM [rising, partial curve]"
5,CCCc1nc(SCc2ccccn2)c2c(=O)n(C)c(=O)n(C)c2n1,"6.31 µM [rising, partial curve]"
6,COc1ccc(S(=O)(=O)N2CCN(Cc3ccccc3)CC2)cc1,"0.126 µM [rising, full curve]"
7,O=S(=O)(CCSc1nc2ccccc2o1)c1nc2ccccc2s1,"5.01 µM [falling, partial curve]"
8,C[C@@H]1CNCCN1S(=O)(=O)c1cccc2cnccc12,"10 µM [falling, full curve] and 15.8 µM [falling, partial curve] and 7.94 µM [falling, full curve]"
9,COc1ccc(/C=N/n2c(SC)nnc2-c2ccccc2)c(OC)c1OC,"12.6 µM [rising, partial curve]"
10,O=C(O)c1cc2ccccc2c(Cc2cc3ccccc3c(C(=O)O)c2O)c1O (tested in a mixture with another compound),"12.6 µM [falling, single point]"
11,CN(C)c1ccnc(NCc2ccccc2)c1C#N,"12.6 µM [rising, partial curve]"
12,O=S(=O)(Nc1ccc2c(c1)OCCO2)c1ccc2oc3ccccc3c2c1,"25.1 µM [falling, single point]"
13,Cc1ccc(C)c(-n2c(Cc3cc(=O)[nH]c(=O)[nH]3)nnc2SCC(=O)NCc2ccco2)c1,"0.501 µM [falling, partial curve]"
14,COc1cc(-c2nnc(SCc3ccccc3Cl)o2)cc(OC)c1OC,"6.31 µM [rising, partial curve]"
15,CCn1c(SCC(=O)Nc2nnc(C)s2)nc2c(c1=O)SC(C)C2 (stereo not drawn),"10 µM [rising, partial curve]"
16,COc1ccc(CCn2c(=N)c(C(=O)N3CCN(C)CC3)cc3c(=O)n4ccccc4nc32)cc1,"12.6 µM [rising, partial curve]"
17,Cc1cnc(CNc2cc(-c3ccc4c(c3)OCO4)ncn2)cn1,"12.6 µM [rising, partial curve]"
18,O=C(O)c1cc(-c2cccs2)nc2cc3c(cc12)OCCO3,"10 µM [rising, single point]"
19,Cc1nn(-c2ccccc2)c(C)c1C(=O)OCC(=O)Nc1ccc2c(c1)OCO2,"25.1 µM [rising, single point]"
20,COCCn1c(=O)cnc2cnc(N(C)C)nc21,"12.6 µM [rising, partial curve]"
21,COC(=O)NCC(c1cccnc1)N1CCOCC1 (stereo not drawn),"12.6 µM [rising, partial curve]"
22,COc1ccccc1-n1cnc2cc(NCc3ccco3)ccc21,"12.6 µM [rising, partial curve]"

row,SMILES,AC50
1,Cc1cnnc2c1-c1nonc1CC2,"0.00316 µM [falling, full curve, poor fit]"
2,OC1(Cc2ccn[nH]2)CCCCC1,"2.51 µM [rising, full curve, poor fit]"
3,C=CC(C)n1c(Br)nc2c1c(=O)[nH]c(=O)n2C (stereo not drawn),"15.8 µM [rising, partial curve, poor fit]"
4,COC(=O)c1sc(N)c(C(=O)OC)c1COC(=O)c1c(C)noc1C,"5.01 µM [rising, partial curve]"
5,Cc1cnc(CNc2nc(-c3c(C)noc3C)nc3ccccc23)cn1,"10 µM [rising, partial curve]"
6,Clc1ccc(-c2nnc3sc(-c4ccc(Br)o4)nn23)c(Cl)c1,"3.16 µM [falling, full curve]"
7,CCCCCCn1c(CN2CCN(C(=O)OCC)CC2)nc2c1c(=O)n(C)c(=O)n2C,"5.01 µM [falling, partial curve]"
8,Cc1nn(Cc2ccccc2)c2c1C(c1ccncc1)C(C#N)=C(N)O2 (stereo not drawn),"1.26 µM [falling, partial curve]"
9,CC(=O)c1ccc(NC(=O)N[C@@H](Cc2ccccc2)C(=O)O)cc1,"2.51 µM [falling, full curve]"
10,Cc1ccc(Nc2cc(-n3nc(C)cc3C)ncn2)c(C)c1,"0.316 µM [falling, full curve]"
11,COc1ccc(NC(=O)c2ccco2)cc1NC(=O)c1cc2ccccc2o1,"25.1 µM [rising, single point]"
12,COc1cc2c(C(=O)N3CCN(Cc4ccc5c(c4)OCO5)CC3)cn(C)c(=O)c2cc1OC,"15.8 µM [rising, single point]"
13,CCn1c(SCC(=O)Nc2ccc3c(c2)c2ccccc2n3CC)nnc1-c1cnccn1,"12.6 µM [rising, partial curve]"
14,COC(=O)c1cc(OC)c(OC)cc1NC(=O)c1ccco1,"2 µM [rising, partial curve]"
15,CCN1CCN(c2ncc3c(n2)CC(c2ccc(OC)c(OC)c2)CC3=O)CC1 (stereo not drawn),"12.6 µM [rising, single point]"
16,Cc1c(Cc2ccccc2)c(=O)oc2c(CN(C)C)c(O)c(Cl)cc12,"12.6 µM [rising, partial curve]"
17,COc1cc(C2NC(=O)NC(C)=C2C(=O)OCc2ccc(C)cc2)cc(OC)c1O (stereo not drawn),"12.6 µM [rising, single point]"
18,CCn1ncc(Br)c1C(=O)Nc1sc2c(c1C(N)=O)CCC2,"2 µM [rising, full curve]"
19,CCOC(=O)/C=C1\SCC(=O)N1Cc1nnc(-c2ccccc2Br)o1,"3.98 µM [falling, single point]"
20,Cc1ccc(C)c(C(=O)N(Cc2nc(-c3ccc(Cl)cc3)no2)C(C)C)c1,"20 µM [falling, single point]"
21,COc1ccc(N2CSC3=C(C#N)C(c4cccc(OC)c4OC)CC(=O)N3C2)cc1 (stereo not drawn),"5.01 µM [rising, full curve]"

# Three compounds drawn at random from those above, as already listed:
row,SMILES,AC50
20,Cc1ccc(C)c(C(=O)N(Cc2nc(-c3ccc(Cl)cc3)no2)C(C)C)c1,"20 µM [falling, single point]"
9,CC(=O)c1ccc(NC(=O)N[C@@H](Cc2ccccc2)C(=O)O)cc1,"2.51 µM [falling, full curve]"
10,Cc1ccc(Nc2cc(-n3nc(C)cc3C)ncn2)c(C)c1,"0.316 µM [falling, full curve]"
